Data from publication PMC8050080, “Cannabis sativa terpenes are cannabimimetic and selectively enhance cannabinoid activity” (Scientific Reports, 2021).
Results are given in words; binding and its absence hold for the method and conditions named. Binding seen in cells or lysates may run through a third protein. Some binding calls cover weakened binding; strength is not graded here.

Sequences of proteins named here, by UniProt entry; tags and fusion partners are left off.
UniProt P21554: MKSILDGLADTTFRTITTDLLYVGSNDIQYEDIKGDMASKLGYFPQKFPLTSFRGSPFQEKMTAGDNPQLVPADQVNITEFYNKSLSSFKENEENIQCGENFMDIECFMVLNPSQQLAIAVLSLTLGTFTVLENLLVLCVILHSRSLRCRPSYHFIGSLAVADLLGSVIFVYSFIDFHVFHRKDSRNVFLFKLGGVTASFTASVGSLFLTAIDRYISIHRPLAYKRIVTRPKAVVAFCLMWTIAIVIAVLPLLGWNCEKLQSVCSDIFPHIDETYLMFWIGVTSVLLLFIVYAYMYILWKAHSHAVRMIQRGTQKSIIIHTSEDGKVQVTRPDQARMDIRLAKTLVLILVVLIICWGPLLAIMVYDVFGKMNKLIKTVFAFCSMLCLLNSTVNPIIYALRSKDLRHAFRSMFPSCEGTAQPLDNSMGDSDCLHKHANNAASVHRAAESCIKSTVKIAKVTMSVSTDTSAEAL
UniProt P32121: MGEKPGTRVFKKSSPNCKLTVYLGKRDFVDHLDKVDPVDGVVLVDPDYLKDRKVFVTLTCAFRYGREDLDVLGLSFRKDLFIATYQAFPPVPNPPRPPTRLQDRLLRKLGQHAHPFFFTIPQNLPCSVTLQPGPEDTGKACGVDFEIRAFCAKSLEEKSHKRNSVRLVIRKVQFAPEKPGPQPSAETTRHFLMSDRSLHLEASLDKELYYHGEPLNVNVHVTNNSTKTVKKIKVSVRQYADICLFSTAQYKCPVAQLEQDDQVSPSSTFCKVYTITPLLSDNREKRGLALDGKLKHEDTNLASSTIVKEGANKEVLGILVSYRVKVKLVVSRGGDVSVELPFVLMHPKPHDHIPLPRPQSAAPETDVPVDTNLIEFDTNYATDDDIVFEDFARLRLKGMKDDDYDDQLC

Molecular target: cannabinoid receptor type 1 (CB1 receptor) (human) (UniProt P21554)
Experiment: split reporter; PathHunter assay; CB1-CHO-βarr2 cells in 384-well plates (5000 cells/well) in Opti-MEM with 1% FBS; treated with varying concentrations of WIN55,212-2 for 1.5 h; luminescence read

In the case of βarrestin2 (from UniProt P32121 1-409), the binding is reported as “binds”.
